Laboratory results as given in publication PMC3844406.
Results are given in words; binding and its absence hold for the method and conditions named. Sequences can lack the tags named with a protein.

Target: T1, Kin28 alone, binding-domain fusion from pGBD-Kin28 (UniProt P06242)
T1 sequence: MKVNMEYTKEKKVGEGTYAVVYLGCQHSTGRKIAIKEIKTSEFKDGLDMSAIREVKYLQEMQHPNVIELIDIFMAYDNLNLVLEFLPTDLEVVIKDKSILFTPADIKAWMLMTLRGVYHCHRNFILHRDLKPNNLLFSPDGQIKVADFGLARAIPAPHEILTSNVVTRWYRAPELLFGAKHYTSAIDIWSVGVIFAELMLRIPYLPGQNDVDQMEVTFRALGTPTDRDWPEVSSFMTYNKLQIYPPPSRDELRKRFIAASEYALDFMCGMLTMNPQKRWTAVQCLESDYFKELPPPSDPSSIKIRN
Test: two-hybrid; modified yeast two-hybrid; bait: pGBD fusions (CTD-Kin28, CTD-mKin28, Kin28); prey: pGAD-PCFS4; the tethered Kin28 phosphorylates the CTD

B1: Arabidopsis Pcf11-similar-4 protein (PCFS4), activation-domain fusion from pGAD-PCFS4 (protein, UniProt Q0WPF2 1-808)
chain: MDSEKILNPRLVSINSTSRKGMSVELPQKPPPPPSLLDRFKALLNQREDEFGGGEEVLPPSMDEIVQLYEVVLGELTFNSKPIITDLTIIAGEQREHGEGIANAICTRILEAPVEQKLPSLYLLDSIVKNIGRDYGRYFSSRLPEVFCLAYRQAHPSLHPSMRHLFGTWSSVFPPPVLRKIDMQLQLSSAANQSSVGASEPSQPTRGIHVNPKYLRRLEPSAAENNLRGINSSARVYGQNSLGGYNDFEDQLESPSSLSSTPDGFTRRSNDGANPSNQAFNYGMGRATSRDDEHMEWRRKENLGQGNDHERPRALIDAYGVDTSKHVTINKPIRDMNGMHSKMVTPWQNTEEEEFDWEDMSPTLDRSRAGEFLRSSVPALGSVRARPRVGNTSDFHLDSDIKNGVSHQLRENWSLSQNYPHTSNRVDTRAGKDLKVLASSVGLVSSNSEFGAPPFDSIQDVNSRFGRALPDGTWPHLSARGPNSLPVPSAHLHHLANPGNAMSNRLQGKPLYRPENQVSQSHLNDMTQQNQMLVNYLPSSSAMAPRPMQSLLTHVSHGYPPHGSTIRPSLSIQGGEAMHPLSSGVLSQIGASNQPPGGAFSGLIGSLMAQGLISLNNQPAGQGPLGLEFDADMLKIRNESAISALYGDLPRQCTTCGLRFKCQEEHSKHMDWHVTKNRMSKNHKQNPSRKWFVSASMWLSGAEALGAEAVPGFLPTEPTTEKKDDEDMAVPADEDQTSCALCGEPFEDFYSDETEEWMYKGAVYMNAPEESTTDMDKSQLGPIVHAKCRPESNGGDMEEGSQRKKMRS
  binding: no binding
